{
  "source": "the supplement of paper PMC8858631",
  "note": "Structures can show the parent of a compound that is named as a salt. The list shows a part of the results. Rule as the data show it: active = 0.5 or less and inactive = the rest. Single values are uncertain, as repeats are few or missing.",
  "data": [
    {"system": "SK-MEL-28", "experiment": "EEF2K protein level normalised to actin (western blot) after treatment (ratio (EEF2K/Actin)); higher = more EEF2K protein remaining (less EEF2K suppression)", "details": "5 µM; 24 h", "values": [
      {"compound": "O=P1(NCCCl)OCCCN1CCCl", "note": "(centres undefined) [Ifosfamide]", "EEF2K protein level normalised to actin": "inactive: 0.7"},
      {"compound": "Cn1c(CCCC(=O)O)nc2cc(N(CCCl)CCCl)ccc21", "note": "[Bendamustine HCl]", "EEF2K protein level normalised to actin": "inactive: 1.13"},
      {"compound": "COC(=O)C[C@](O)(CCC(C)(C)O)C(=O)O[C@@H]1C(OC)=C[C@]23CCCN2CCc2cc4c(cc2[C@H]13)OCO4", "note": "[Harringtonine]", "EEF2K protein level normalised to actin": "inactive: 3.24"},
      {"compound": "CCC1=C[C@H]2CN3CCc4c([nH]c5ccccc45)[C@](C(=O)OC)(C2)[C@H]13", "note": "[Catharanthine]", "EEF2K protein level normalised to actin": "inactive: 0.68"}
    ]}
  ]
}
